Some of the results follow. Further columns of the screen follow, without active or inactive calls. The list favours compounds with an active or inconclusive main result. The note in brackets gives the kind of curve behind each potency; many fits are weak.

In PubChem BioAssay AID662 (National Center for Advancing Translational Sciences (NCATS), 2007) one finds AC50 data, which are given here for 67 compounds.

A short description of this experiment: Cell signaling CRE-BLA (Fsk stim). Particulars: CHO CRE-bla reporter (cAMP response element driving beta-lactamase), forskolin EC10, beta-lactamase ratio; measured here: 460 nm blue channel. An outline of the steps: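 Reporter-gene assay: CHO cells with beta-lactamase behind cAMP responsive elements, co-treated with compound and EC10 NKH 477 for 3 hours at 37 degrees Celsius. Activity came from the 460/530 nm CCF4 emission ratio.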
As for `CC1Cc2ccccc2N1C(=O)C1CCN(S(=O)(=O)c2cccs2)CC1` (configuration not stated), the AC50 was 1 µM [falling, single point].

For `COc1ccc(C(=O)n2nc(-c3ccco3)nc2SC)cc1OC`, the AC50 is 10 µM [falling, partial curve].

On to `C=CCNC(=O)c1c(N)n(-c2cccc(S(N)(=O)=O)c2)c2nc3ccccc3nc12`, for which the half-maximal activity concentration (AC50) is 12.6 µM [rising, partial curve].

Regarding `CCOC(=O)c1c(CN(CC)CC)oc2cc(Br)c(O)cc12`, the concentration at half-maximal activity (AC50) was 3.16 µM [rising, full curve].

With `CCOc1ccccc1COC(=O)c1cccc(-n2cnnn2)c1`, the concentration at half-maximal activity (AC50) is 12.6 µM [rising, partial curve].

Turning to `Cc1ccc(NS(=O)(=O)c2cccc(C(=O)N3CCOCC3)c2)cc1`, the half-maximal activity concentration (AC50) is 5.01 µM [falling, partial curve].

Take `CCOC(=O)N1CCC(C(N)=O)CC1`: the AC50 was 1.26 µM [falling, partial curve].

Take `CCCn1c(=O)c(C(=O)NCc2ccccn2)c(O)c2ccccc21`: the concentration at half-maximal activity (AC50) is 5.01 µM [rising, partial curve].

For `COc1ccc(C(=O)N(CN2CCCC2=O)c2nccs2)cc1OC`, the AC50 was 3.16 µM [rising, full curve].

Take `CCOC(=O)c1cc(C)[nH]c(=S)c1C#N`: the AC50 was 25.1 µM [rising, single point].

Regarding `CC1CN(S(=O)(=O)Cc2ccccc2)CC(C)O1` (configuration not stated), the AC50 is 3.16 µM [rising, partial curve].

With `O=c1cc(-c2ccccc2O)oc2cc(O)cc(O)c12`, the AC50 was 31.6 µM [falling, single point].

Take `COCc1cc(C)nc2sc(C(=O)OC)c(N)c12`: the concentration at half-maximal activity (AC50) was 15.8 µM [rising, single point].

For the compound `COc1cccc(Nc2ncc3nc(-c4ccc(Cl)cc4)c(=O)n(C4CC4)c3n2)c1`, the AC50 was 3.98 µM [rising, partial curve].

Take `COC(=O)[C@@]1(Cc2ccc(OC)cc2)[C@H]2c3cc(C(=O)N4CCCC4)n(CCc4ccc(O)c(OC)c4)c3C[C@H]2CN1C(=O)c1ccccc1`: the AC50 was 10 µM [rising, partial curve].

Regarding `O=C(O)COc1cccc(-c2ocnc2-c2nc(-c3ccccc3)c(-c3ccccc3)o2)c1`, the half-maximal activity concentration (AC50) was 12.6 µM [falling, partial curve].

`COc1ccc(C2C3=C(CCCC3=O)Nc3nc(SCc4ccccc4)nn32)cc1OC` (configuration not stated): the AC50 is 15.8 µM [rising, single point].

Take `N#CCCn1c(=O)c(-c2cc(F)cc(F)c2)nc2cnc(Oc3cccc(Cl)c3)nc21`: the AC50 was 7.94 µM [rising, partial curve].

Turning to `COc1cccc(Nc2ncc3nc(C)c(=O)n(C[C@H]4CCCO4)c3n2)c1`, the half-maximal activity concentration (AC50) is 5.01 µM [rising, partial curve].

Take `CS(=O)(=O)c1ccc2nc(NC(=O)Cc3ccccc3)sc2c1`: the AC50 was 25.1 µM [rising, single point].

As to `O=c1[nH]n(-c2cccc3cccnc23)c(=O)c2ccccc12`, the AC50 is 0.126 µM [falling, full curve, poor fit].

On to `Cc1ccc(-c2nn(-c3ccccc3)cc2/C=C(\C#N)c2cccc(C#N)c2)o1`, for which the half-maximal activity concentration (AC50) is 6.31 µM [rising, partial curve].

Consider `O=C(OCC(=O)N1CCc2ccccc21)c1ccccc1`, for which the AC50 was 0.126 µM [falling, single point].

Consider `Cc1nn(-c2ccccc2)c2sc(-c3n[nH]c(=S)o3)cc12`, for which the concentration at half-maximal activity (AC50) is 0.316 µM [rising, full curve].

In the case of `O=C(C1CCCCC1)N1CCCC(c2nc3c(nnn3Cc3ccccc3)c(=O)[nH]2)C1` (configuration not stated), the concentration at half-maximal activity (AC50) is 12.6 µM [rising, single point].

`COc1nc(Nc2cccc(C)c2)nc(N2CCCCC2)n1`: the half-maximal activity concentration (AC50) is 12.6 µM [rising, partial curve].

For `O=C(CCCn1c(=O)[nH]c2ccsc2c1=O)N1CCN(c2ccccn2)CC1`, the half-maximal activity concentration (AC50) is 0.501 µM [falling, partial curve].

As to `CCOC(=O)c1c(-c2ccccc2)csc1NC(=O)c1nn(CC)cc1Br`, the AC50 is 2.51 µM [rising, full curve].

Take `CC(=O)N(Cc1cc2c(C)cc(C)cc2[nH]c1=O)C1CCCCC1`: the half-maximal activity concentration (AC50) is 12.6 µM [rising, single point].

As to `NS(=O)(=O)c1ccc(CCNC(=O)c2ccccc2F)cc1`, the half-maximal activity concentration (AC50) was 0.316 µM [falling, partial curve].

`CCC(C)N(C(=O)COC(=O)c1[nH]c(C)c(C(C)=O)c1C)C1CCS(=O)(=O)C1` (configuration not stated): the AC50 is 0.00398 µM [falling, full curve, poor fit].

With `Cn1c(CSc2nnc(SCc3ccccc3)s2)nc2ccccc21`, the concentration at half-maximal activity (AC50) is 12.6 µM [rising, single point].

For `COc1ncc2nc(-c3ccc(F)cc3)c(=O)n(-c3ccccc3)c2n1`, the AC50 was 25.1 µM [rising, partial curve].

For `Cc1cc2cc(CN3C(=O)c4ccccc4C3=O)ccc2[nH]1`, the concentration at half-maximal activity (AC50) was 10 µM [rising, partial curve].

Turning to `COC(=O)c1cc(N2C(=O)C3C(C2=O)C2(C)C=CC3(C)O2)ccc1Cl` (configuration not stated), the concentration at half-maximal activity (AC50) was 10 µM [falling, partial curve].

In the case of `Cc1cc(-c2cccnc2)c(C#N)c(SCC#N)n1`, the AC50 was 20 µM [rising, single point].

Turning to `CCN(CC)c1ccc(C2C(C(=O)OCCOC)=C(C)NC3=C2C(=O)CC(C)(C)C3)cc1` (configuration not stated), the AC50 is 10 µM [rising, partial curve].

For `CCCCOC(=O)c1ccc(NS(=O)(=O)c2cc(-c3nnnn3CC)ccc2OC)cc1`, the AC50 is 25.1 µM [falling, single point].

For the compound `COc1cccc(-c2ccc3ncnc(Nc4ccccc4)c3c2)c1`, the AC50 is 12.6 µM [rising, partial curve].

`CC(C)OP(=O)(c1ccc(N(C)C)cc1)C(O)c1c(Cl)cccc1Cl` (configuration not stated): the half-maximal activity concentration (AC50) is 1 µM [rising, full curve, poor fit].

As to `COc1ccc(-c2noc(CSc3nnc(Cc4ccccc4)n3-c3cccc(C)c3)n2)cc1OC`, the AC50 was 25.1 µM [rising, single point].

Consider `COCCn1c(SCC(=O)Nc2ccccc2)nc2c1c(=O)[nH]c(=O)n2C`, for which the concentration at half-maximal activity (AC50) is 10 µM [rising, single point].

As for `Cc1ccc(C)c(N(CC(=O)NCCSCc2ccco2)S(C)(=O)=O)c1`, the AC50 is 0.158 µM [falling, full curve, poor fit].

Regarding `CCN(CCCNC(=O)COc1cc(=O)n(C)c2ccccc12)c1cccc(C)c1`, the AC50 is 15.8 µM [rising, partial curve, poor fit].

In the case of `CCNc1ncc2nc(CCc3ccccc3)c(=O)n(Cc3cccc(OC)c3)c2n1`, the AC50 is 10 µM [rising, partial curve].

As for `Nc1c(C(=O)NCc2ccc3c(c2)OCO3)c2nc3ccccc3nc2n1CCCN1CCOCC1`, the half-maximal activity concentration (AC50) was 12.6 µM [rising, partial curve].

Take `C=C(C)CSc1nc(N)c(C#N)c(-c2ccc(C)cc2)c1C#N`: the AC50 was 2.51 µM [rising, full curve].

Turning to `Cc1ccc(C2CC(C(F)F)n3ncc(C(=O)Nc4cnn(Cc5ccccc5C)c4)c3N2)cc1` (configuration not stated), the AC50 is 7.94 µM [falling, partial curve].

Regarding `Cc1csc(NC(=O)CCNS(=O)(=O)c2ccc3c(c2)c(=O)n(C)c(=O)n3C)n1`, the AC50 was 20 µM [rising, single point].

Take `Oc1ccc(O)cc1`: the AC50 is 3.98 µM [falling, full curve].

Take `COc1ccc(S(=O)(=O)N2CC(C)N(S(=O)(=O)c3ccc(OC)cc3)CC2C)cc1` (configuration not stated): the AC50 is 0.158 µM [rising, full curve].

On to `O=C(c1cccn2c(=O)c3cc(Cl)ccc3nc12)N1CCN(Cc2ccc3c(c2)OCO3)CC1`, for which the half-maximal activity concentration (AC50) is 1.26 µM [rising, full curve].

With `COc1ccccc1CNc1nc(-c2ccc(C(=O)N(C)C)cc2)nc2ccccc12`, the half-maximal activity concentration (AC50) was 3.98 µM [rising, full curve].

As to `COCCn1c(C)cc(C(=O)CSc2nc(C)cc(C)c2C#N)c1C`, the AC50 was 7.94 µM [rising, partial curve].

Regarding `O=C(C1CC1)N1CCc2cc(Br)cc(S(=O)(=O)NC3CCCCC3)c21`, the AC50 was 10 µM [rising, single point].

In the case of `COc1ccc(CNC(=O)c2cc3c(=O)n4ccccc4nc3n(CC3CCCO3)c2=N)cc1` (configuration not stated), the AC50 was 0.794 µM [rising, full curve].

`Cn1cc(-c2nc3cnc(Oc4cccc(Cl)c4)nc3n(CCC#N)c2=O)c2ccccc21`: the AC50 was 2.51 µM [rising, full curve].

Consider `Cc1ccc(-c2nn(C)c(=O)c3ccccc23)cc1S(=O)(=O)N1CCOCC1`, for which the AC50 is 2.51 µM [rising, full curve].

Regarding `CSC1=C(C#N)C2(CCCC2)C(C#N)=C(N)N1`, the AC50 is 0.00316 µM [rising, full curve, poor fit].

Consider `CCCSc1nnc(Sc2nnnn2-c2ccccc2)s1`, for which the half-maximal activity concentration (AC50) is 3.16 µM [falling, partial curve].

Regarding `O=C(COc1ccccc1)NC1CCN(Cc2ccccc2)CC1`, the AC50 is 25.1 µM [rising, single point].

With `COC(=O)c1ccc(CSc2nc3sc4c(c3c(=O)n2C)CCCC4)o1`, the AC50 was 1.58 µM [rising, partial curve].

In the case of `CCN(CC)CCCN(Cc1cc2cc3c(cc2[nH]c1=O)OCCO3)C(=O)Nc1ccc(F)cc1`, the AC50 is 12.6 µM [rising, single point].

Regarding `CCCCCC(C)n1[nH]c(=O)c2c(C)cc(C)nc21` (configuration not stated), the AC50 is 10 µM [rising, single point].

For `CCOC(=O)c1[nH]cnc1C(=O)Nc1cccc(N)n1`, the AC50 was 10 µM [rising, single point].

For `O=C(CSc1ncn[nH]1)Nc1nc(-c2ccccc2)ns1`, the concentration at half-maximal activity (AC50) was 12.6 µM [rising, partial curve].

Turning to `Clc1ccccc1-c1nc(Nc2ccncc2)c2ccccc2n1`, the half-maximal activity concentration (AC50) is 5.01 µM [rising, full curve, poor fit].
